Results are given in words; binding and its absence hold for the method and conditions named. In cells and extracts the contact can be indirect. Some results given as binding are weak or reduced against the parent protein; the word gives no strength.

Chains of the proteins cited; added tags and fusions are not shown.
UniProt P42224: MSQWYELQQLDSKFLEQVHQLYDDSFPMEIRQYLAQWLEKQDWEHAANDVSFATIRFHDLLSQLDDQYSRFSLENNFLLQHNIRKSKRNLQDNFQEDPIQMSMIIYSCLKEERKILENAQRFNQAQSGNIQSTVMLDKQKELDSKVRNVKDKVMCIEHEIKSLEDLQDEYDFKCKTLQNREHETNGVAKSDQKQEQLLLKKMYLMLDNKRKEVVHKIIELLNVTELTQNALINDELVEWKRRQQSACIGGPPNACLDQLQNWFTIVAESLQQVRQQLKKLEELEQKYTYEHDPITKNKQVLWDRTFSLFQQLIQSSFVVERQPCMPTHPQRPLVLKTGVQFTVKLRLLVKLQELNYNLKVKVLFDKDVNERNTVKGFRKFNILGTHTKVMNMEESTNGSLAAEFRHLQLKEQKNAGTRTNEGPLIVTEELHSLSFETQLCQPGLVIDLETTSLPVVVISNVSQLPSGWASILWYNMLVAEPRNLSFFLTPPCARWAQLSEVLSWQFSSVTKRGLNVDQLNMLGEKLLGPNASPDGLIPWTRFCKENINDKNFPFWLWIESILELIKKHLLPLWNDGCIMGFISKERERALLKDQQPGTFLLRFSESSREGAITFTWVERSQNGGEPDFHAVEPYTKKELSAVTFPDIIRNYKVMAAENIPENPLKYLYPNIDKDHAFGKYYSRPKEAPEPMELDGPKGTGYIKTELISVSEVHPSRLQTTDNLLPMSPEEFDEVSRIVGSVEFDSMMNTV
UniProt Q93009: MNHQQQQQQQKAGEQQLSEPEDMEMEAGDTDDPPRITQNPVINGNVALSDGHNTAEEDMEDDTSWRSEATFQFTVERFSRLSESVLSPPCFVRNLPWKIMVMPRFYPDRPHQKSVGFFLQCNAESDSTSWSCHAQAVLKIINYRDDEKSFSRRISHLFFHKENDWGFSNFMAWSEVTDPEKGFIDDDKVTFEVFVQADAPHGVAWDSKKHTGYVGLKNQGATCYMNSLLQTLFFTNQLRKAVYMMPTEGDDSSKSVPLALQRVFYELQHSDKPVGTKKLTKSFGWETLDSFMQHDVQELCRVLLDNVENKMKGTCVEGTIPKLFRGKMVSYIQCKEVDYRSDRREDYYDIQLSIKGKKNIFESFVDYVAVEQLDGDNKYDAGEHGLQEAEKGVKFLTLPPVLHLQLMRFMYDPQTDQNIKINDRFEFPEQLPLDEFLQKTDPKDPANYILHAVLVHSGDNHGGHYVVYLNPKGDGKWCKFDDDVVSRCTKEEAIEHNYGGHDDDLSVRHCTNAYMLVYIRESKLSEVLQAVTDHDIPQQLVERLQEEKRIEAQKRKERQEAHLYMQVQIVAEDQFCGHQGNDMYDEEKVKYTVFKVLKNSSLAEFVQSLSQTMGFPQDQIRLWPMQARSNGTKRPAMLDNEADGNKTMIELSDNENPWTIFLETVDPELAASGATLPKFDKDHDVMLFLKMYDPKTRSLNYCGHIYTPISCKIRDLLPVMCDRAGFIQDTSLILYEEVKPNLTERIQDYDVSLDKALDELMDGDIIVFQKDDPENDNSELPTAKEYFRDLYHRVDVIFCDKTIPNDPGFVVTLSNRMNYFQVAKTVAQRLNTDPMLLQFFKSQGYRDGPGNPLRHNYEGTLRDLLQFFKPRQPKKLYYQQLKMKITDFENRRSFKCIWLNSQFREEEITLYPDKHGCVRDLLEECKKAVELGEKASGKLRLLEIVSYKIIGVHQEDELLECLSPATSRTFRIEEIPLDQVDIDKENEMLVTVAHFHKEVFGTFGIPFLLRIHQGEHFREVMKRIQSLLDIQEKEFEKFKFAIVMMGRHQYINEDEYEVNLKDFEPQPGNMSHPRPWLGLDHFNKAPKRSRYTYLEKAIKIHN
UniProt P40763: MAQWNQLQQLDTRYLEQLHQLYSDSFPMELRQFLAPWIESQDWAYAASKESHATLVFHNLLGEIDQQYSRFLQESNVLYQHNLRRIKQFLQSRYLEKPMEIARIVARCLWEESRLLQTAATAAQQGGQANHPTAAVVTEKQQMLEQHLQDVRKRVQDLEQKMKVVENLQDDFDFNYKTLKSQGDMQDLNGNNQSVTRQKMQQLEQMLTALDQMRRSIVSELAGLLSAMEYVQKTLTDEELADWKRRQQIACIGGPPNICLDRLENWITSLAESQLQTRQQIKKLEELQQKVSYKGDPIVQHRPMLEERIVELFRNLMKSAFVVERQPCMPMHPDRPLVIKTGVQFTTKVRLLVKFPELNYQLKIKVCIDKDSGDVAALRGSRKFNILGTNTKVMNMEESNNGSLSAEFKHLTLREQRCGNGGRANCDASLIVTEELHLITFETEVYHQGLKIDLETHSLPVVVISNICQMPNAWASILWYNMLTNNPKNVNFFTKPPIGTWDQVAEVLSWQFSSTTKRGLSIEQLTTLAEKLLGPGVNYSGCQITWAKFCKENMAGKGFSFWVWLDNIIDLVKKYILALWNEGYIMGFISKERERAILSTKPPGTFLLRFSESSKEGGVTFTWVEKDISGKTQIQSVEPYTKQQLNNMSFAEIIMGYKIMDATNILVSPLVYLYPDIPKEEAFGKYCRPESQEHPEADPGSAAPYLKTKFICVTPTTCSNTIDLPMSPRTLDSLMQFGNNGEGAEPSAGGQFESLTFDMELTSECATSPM

The target in the assay is T1, tripartite motif-containing 24 (TRIM24) (human (endogenous in THP-1)) (UniProt O15164).
T1 sequence: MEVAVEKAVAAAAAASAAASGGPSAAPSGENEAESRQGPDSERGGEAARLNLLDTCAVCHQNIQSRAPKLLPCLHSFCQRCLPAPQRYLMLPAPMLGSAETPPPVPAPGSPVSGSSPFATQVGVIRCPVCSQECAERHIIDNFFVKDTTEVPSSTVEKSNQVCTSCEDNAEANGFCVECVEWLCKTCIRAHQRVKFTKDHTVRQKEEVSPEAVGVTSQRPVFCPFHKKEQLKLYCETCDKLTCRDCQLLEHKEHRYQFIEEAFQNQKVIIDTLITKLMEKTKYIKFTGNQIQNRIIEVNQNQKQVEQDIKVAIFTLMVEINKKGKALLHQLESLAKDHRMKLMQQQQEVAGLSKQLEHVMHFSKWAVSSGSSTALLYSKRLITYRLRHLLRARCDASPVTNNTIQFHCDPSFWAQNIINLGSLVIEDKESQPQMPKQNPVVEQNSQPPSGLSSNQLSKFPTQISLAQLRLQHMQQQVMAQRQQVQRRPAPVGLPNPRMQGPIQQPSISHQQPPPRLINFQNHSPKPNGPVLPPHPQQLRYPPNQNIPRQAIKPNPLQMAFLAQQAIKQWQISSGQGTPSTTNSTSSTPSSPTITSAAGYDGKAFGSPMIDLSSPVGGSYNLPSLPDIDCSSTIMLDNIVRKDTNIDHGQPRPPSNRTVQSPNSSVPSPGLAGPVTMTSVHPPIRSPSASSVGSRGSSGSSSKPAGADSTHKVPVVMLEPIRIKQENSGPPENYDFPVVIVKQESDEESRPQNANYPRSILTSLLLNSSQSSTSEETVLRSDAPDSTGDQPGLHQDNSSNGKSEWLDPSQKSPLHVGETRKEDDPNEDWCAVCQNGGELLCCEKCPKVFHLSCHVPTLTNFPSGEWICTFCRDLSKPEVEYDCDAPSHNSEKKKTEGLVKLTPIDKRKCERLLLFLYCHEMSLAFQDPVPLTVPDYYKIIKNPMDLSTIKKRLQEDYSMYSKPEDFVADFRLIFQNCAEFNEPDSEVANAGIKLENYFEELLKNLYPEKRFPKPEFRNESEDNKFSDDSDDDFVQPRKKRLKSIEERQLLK
Kind of assay: co-IP; macrophage lysates (Pierce IP lysis buffer with protease inhibitor cocktail); IP with anti-USP7, anti-TRIM24, anti-STAT3, anti-STAT1, anti-STAT6 or control IgG pre-conjugated to protein A/G PLUS-Agarose, overnight at 4 °C; detection by Western blotting.
Take STAT1 (from UniProt P42224 1-750): the binding entry is on record as “no binding”.
For “Ubiquitin-specific processing protease 7 (USP7) (from UniProt Q93009 1-1102) (enzyme)”, the binding result is given as “binds”.
Take “signal transducer and activator of transcription 3 (STAT3) (from UniProt P40763 1-770)”: the binding result is listed as “binds”.

(Values after PMC10739934.)
